Measured values published in PubChem BioAssay (NCATS).
This list was built around the results that the source calls inconclusive (neither active nor inactive); the mix of calls is not that of the screen. A call without a number means that no potency is given here. For some of these results: Potencies beside an inconclusive call are fits to weak or partial responses and may not hold up. Activity calls are given as the source filed them. Unless noted, calls come from the whole dose curve; as a rule, active = well fitted curve in the direction sought with a large enough effect; inconclusive = small, poorly fitted or top-dose-only effect, or another doubt; inactive = no such curve, though single readings can be large; an effect the other way counts as inactive or inconclusive.

Amino acid sequences for entries named in this document (tags omitted). A change or cut given only in a name is not applied to a line headed by its entry.
UniProt Q9UNA4: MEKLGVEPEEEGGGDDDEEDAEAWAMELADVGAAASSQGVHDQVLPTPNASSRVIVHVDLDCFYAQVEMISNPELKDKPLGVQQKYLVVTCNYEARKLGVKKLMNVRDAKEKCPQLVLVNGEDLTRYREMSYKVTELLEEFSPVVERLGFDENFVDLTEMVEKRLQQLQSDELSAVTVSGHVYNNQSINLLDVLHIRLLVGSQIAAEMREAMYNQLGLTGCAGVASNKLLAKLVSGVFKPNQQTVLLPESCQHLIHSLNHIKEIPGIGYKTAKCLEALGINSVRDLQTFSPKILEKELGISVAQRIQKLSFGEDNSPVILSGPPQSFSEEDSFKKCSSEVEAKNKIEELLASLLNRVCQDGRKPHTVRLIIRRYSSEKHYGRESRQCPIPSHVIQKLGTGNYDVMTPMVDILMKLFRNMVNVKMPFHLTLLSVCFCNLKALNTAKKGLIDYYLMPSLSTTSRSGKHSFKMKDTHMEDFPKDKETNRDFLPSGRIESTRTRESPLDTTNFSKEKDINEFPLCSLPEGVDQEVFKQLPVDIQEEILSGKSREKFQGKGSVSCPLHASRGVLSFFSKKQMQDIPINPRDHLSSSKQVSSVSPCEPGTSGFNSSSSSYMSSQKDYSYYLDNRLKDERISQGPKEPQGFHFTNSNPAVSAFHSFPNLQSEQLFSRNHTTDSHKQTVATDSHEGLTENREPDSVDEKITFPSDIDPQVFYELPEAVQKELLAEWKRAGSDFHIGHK
UniProt C7C422: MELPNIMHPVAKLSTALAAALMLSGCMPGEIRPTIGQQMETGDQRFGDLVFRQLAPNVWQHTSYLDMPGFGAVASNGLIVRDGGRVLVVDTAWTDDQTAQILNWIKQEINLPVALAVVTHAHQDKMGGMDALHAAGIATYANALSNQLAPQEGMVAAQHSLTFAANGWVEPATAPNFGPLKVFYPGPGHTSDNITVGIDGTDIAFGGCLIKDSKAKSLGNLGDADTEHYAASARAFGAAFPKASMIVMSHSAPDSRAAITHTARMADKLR
UniProt Q9HAZ1: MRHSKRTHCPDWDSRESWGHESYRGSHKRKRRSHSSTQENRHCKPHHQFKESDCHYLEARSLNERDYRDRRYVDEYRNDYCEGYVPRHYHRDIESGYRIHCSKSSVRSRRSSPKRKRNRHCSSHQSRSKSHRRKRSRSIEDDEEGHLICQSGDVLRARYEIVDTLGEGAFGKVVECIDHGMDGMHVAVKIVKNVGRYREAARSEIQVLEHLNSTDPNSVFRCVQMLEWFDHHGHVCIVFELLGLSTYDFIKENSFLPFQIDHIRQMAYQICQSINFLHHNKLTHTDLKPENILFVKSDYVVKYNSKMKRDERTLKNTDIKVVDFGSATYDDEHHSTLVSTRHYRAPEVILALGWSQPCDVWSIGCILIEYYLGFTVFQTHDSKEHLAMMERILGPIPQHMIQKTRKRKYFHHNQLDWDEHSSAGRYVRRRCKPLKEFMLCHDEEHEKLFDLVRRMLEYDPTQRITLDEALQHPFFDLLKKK
UniProt Q07343: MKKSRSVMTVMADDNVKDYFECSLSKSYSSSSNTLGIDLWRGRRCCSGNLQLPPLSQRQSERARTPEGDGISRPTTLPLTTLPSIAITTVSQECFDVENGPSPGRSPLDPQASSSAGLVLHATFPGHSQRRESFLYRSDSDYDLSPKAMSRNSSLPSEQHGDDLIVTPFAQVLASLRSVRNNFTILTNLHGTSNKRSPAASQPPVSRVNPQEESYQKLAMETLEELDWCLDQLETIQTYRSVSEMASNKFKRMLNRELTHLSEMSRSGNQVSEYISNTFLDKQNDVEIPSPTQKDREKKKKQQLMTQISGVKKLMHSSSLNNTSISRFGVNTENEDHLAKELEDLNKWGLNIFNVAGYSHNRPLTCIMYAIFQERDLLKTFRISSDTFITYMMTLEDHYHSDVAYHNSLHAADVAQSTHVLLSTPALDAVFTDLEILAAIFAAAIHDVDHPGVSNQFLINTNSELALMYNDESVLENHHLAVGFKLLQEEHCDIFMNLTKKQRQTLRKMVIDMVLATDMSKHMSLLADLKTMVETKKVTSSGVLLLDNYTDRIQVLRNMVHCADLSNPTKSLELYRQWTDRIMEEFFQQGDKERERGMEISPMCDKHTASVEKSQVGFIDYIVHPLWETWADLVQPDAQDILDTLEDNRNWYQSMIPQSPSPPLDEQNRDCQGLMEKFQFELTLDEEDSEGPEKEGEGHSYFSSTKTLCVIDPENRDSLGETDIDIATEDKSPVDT
UniProt P54132: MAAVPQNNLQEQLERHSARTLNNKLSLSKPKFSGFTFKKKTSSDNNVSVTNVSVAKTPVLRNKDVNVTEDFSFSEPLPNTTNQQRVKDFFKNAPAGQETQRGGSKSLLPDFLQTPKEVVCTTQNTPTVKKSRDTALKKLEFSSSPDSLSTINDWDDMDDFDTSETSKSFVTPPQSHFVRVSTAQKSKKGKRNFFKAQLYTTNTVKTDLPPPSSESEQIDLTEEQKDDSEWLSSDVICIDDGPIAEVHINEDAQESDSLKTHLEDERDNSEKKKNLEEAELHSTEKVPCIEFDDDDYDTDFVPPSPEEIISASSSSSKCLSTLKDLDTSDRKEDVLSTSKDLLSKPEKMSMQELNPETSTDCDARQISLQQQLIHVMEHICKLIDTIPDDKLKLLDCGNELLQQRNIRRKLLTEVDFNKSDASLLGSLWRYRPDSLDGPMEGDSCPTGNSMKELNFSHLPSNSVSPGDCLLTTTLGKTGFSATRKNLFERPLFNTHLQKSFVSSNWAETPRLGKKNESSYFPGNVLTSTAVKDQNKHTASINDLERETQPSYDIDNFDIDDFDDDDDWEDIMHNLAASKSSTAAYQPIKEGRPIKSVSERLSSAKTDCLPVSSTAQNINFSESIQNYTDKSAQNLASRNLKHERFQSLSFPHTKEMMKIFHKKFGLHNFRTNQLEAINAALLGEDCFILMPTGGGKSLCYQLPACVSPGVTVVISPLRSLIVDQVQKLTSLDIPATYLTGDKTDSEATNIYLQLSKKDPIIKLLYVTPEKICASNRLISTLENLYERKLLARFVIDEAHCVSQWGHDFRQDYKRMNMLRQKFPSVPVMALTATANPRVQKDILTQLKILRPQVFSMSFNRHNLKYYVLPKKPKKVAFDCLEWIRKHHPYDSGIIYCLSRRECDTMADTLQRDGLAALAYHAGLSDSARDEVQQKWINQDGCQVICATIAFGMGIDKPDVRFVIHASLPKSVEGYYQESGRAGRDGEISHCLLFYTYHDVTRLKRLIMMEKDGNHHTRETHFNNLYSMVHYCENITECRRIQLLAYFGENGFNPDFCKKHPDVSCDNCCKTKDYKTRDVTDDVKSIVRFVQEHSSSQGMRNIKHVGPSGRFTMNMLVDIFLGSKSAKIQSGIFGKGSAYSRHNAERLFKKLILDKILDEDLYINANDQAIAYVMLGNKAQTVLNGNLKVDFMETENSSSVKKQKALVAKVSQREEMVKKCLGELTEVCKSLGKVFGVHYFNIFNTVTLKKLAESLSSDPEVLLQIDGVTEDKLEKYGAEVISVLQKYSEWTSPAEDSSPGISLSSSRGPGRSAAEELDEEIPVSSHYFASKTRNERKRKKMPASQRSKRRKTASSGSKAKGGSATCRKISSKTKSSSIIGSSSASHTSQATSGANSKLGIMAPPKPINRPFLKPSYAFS
UniProt O15648: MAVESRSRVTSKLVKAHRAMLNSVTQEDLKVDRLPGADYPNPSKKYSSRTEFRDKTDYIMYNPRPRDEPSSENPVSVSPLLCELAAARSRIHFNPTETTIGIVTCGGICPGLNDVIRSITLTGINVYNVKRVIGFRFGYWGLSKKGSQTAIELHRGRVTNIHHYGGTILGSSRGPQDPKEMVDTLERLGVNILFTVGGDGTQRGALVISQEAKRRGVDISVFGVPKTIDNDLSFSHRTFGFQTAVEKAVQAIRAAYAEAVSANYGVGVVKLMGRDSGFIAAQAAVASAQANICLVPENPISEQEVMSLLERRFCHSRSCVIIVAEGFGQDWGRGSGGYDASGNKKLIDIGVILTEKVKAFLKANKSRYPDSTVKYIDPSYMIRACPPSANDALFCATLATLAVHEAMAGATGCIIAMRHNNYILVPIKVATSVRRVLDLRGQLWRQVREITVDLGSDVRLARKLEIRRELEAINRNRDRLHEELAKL
UniProt P83916, whole entry, looked up: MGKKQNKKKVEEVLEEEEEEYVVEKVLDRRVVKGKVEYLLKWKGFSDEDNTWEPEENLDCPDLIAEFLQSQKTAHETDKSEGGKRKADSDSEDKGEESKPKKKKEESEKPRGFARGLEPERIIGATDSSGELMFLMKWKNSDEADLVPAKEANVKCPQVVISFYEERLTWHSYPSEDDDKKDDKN
UniProt P15289: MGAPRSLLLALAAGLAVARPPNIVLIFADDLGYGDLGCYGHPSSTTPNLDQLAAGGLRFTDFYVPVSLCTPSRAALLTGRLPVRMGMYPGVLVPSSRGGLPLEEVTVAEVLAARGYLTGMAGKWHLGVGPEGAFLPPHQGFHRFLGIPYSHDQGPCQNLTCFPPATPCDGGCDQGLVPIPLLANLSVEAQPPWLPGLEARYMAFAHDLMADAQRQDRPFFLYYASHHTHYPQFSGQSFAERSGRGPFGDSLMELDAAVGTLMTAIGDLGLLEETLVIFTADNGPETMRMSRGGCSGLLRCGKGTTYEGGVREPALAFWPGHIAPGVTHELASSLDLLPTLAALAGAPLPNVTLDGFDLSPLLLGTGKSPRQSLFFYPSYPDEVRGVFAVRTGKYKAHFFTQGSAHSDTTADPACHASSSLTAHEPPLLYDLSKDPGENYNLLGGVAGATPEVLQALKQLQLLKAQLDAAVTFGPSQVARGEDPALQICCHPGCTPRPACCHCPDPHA
UniProt P05177, whole entry, looked up: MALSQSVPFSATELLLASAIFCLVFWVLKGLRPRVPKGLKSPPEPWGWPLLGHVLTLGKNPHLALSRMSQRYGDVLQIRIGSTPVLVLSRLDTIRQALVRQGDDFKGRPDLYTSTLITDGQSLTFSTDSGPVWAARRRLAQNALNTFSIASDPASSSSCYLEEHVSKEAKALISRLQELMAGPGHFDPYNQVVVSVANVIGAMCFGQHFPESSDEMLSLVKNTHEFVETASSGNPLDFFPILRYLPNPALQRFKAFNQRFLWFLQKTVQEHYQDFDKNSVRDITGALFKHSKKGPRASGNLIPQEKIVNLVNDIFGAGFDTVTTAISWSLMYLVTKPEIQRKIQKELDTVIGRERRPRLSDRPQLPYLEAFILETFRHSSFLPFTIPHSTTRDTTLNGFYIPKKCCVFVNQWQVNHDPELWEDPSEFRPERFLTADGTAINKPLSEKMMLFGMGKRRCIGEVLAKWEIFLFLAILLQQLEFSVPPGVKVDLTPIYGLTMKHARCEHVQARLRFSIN
UniProt O94782: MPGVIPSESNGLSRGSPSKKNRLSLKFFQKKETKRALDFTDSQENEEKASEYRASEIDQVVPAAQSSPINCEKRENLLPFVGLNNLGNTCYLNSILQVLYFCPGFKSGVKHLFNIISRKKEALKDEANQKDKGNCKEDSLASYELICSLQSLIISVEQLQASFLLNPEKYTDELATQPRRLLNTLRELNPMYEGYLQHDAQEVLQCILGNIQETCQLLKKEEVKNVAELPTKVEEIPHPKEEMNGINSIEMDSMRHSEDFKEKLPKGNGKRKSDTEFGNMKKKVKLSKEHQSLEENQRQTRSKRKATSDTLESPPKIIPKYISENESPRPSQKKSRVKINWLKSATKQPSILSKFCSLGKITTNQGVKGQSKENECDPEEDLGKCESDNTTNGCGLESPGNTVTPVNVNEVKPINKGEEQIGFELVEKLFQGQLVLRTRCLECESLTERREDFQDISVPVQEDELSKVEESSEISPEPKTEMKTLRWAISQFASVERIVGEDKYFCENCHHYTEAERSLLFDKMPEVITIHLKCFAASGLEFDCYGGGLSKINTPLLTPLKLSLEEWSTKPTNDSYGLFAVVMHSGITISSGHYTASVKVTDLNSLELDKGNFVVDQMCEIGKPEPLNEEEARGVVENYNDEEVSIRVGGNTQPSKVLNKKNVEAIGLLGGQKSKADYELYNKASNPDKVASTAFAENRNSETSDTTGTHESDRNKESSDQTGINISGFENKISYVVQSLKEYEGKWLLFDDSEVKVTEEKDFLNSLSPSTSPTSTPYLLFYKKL

Columns and labels:
[1] = molecular target: DNA polymerase iota (Homo sapiens) (UniProt Q9UNA4); experiment: qHTS for Inhibitors of Polymerase Iota: Confirmatory Assay for Cherry-picked Compounds (AID 720496); settings: Pol iota primer extension, TAMRA/BHQ fluorescence; note: potency is the fitted concentration of half-maximal effect
How it was run: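 Recombinant human Pol iota (10 nM) was preincubated with compound for 15 min at room temperature, then 50 nM final primer/template substrate was added; the substrate carried a TAMRA-labeled reporter strand and a BHQ-2-quenched template. Fluorescence was read at 0 and 10 min.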

[2] = molecular target: Metallo-beta-lactamase type 2 (Klebsiella pneumoniae) (UniProt C7C422); experiment: qHTS to identify inhibitors of the New Delhi Metallo-beta-lactamase (NDM): assay validation screen against the NCATS LOPAC Collection (AID 1794843); settings: NDM-1 enzyme, nitrocefin hydrolysis, absorbance 485 nm; series mostly up to 38.4 µM;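 note: nitrocefin turnover by NDM-1 measured as 485 nm absorbance at plateau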
How it was run: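 NDM-1 at 2 nM final in 50 mM HEPES pH 7.0 with 1 uM ZnSO4 and 0.01% Tween20 was preincubated with library compounds in DMSO. Nitrocefin (50 uM stock) was then added, and absorbance at 485 nm was read at the kinetic plateau.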

[3] = NFAT Signaling Pathway (AID 444; active = well fitted curve in either direction with a large enough effect, not every such curve was filed as active; inconclusive = small, poorly fitted or top-dose-only effect, or another doubt;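 note: carbachol stimulus at about its EC50 of 1 µM final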); settings: Jurkat NFAT-bla M1, carbachol, beta-lactamase ratio, 5 h; at 7.69 µM (top of the series) unless noted
How it was run: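 Read-out: CCF4 FRET ratio (460 nm/530 nm) after 1 h RT dye loading, used for %activity and AC50 from titration series. Cells: Jurkat NFAT-β-lactamase/M1 line, treated with compound plus 1 uM carbachol for 5 h, 37 °C.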

[4] = Stat Signaling Pathway (AID 446; active = well fitted curve in either direction with a large enough effect, not every such curve was filed as active; inconclusive = small, poorly fitted or top-dose-only effect, or another doubt;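 note: ME-180 cervical cancer cells given 40 pM IL-6 alongside compound; SIE-controlled beta-lactamase reporter measured as 460/530 nm FRET emission ratio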); settings: ME-180 SIE beta-lactamase reporter, IL-6 stimulated, 5 h; at 7.69 µM (top of the series) unless noted
How it was run: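 ME-180 SIE-bla cells; overnight plating; cpd + IL-6 40 pM, 5 h, 37 C; LiveBLAzer 2.5 h RT; 460/530 nm emission ratio. Normalized to 300 pM IL-6 and 125 nM JAK inhibitor controls.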

[5] = molecular target: Dual specificity protein kinase CLK4 (Homo sapiens) (UniProt Q9HAZ1); experiment: qHTS Assay for Inhibitors of CDC-like Kinase 4 (ADP-FP Assay) (AID 1795); settings: Transcreener ADP fluorescence polarization; series mostly up to 50 µM; note: nearly all actives have a fitted effect of over 60% in size; note: potency is the fitted concentration of half-maximal effect;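 for activity change, negative = inhibition: recombinant human CLK4 phosphorylating RS repeat peptide at 1 µM ATP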
How it was run: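 Clk4 6.25 nM; RS peptide 100 uM; ATP 1 uM; 25 mM Tris pH 7.5, 10 mM MgCl2; 1 h reaction. ADP detected via antibody/orange tracer FP displacement; TG003 positive control.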

[6] = qHTS Assay for Identification of Small Molecule Agonists for Hypoxia Response Element Signaling Pathway (AID 914; active = well fitted activation curve with a large enough effect in the signal ratio, with a control signal flat, not every such curve was filed as active; inconclusive = small, poorly fitted or top-dose-only effect, or effect the other way, or a change in a side signal; the % refers to the signal ratio); settings: ME-180 HRE-bla reporter, beta-lactamase ratio, CoCl2, 17 h; activation: stronger effect = higher value
How it was run: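 ME-180 cells carrying an HRE-driven beta-lactamase reporter were treated with compounds in a titration series plus an EC50 level of CoCl2 for 17 h at 37 degrees Celsius; CCF4 readout as the 460nm/530nm ratio gave AC50 values.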

[7] = molecular target: 3',5'-cyclic-AMP phosphodiesterase 4B (Homo sapiens) (UniProt Q07343); experiment: qHTS Assay for Inhibitors of PDE-IV (AID 607; active = well fitted activation curve with a large enough effect in the main read-out, with a control signal flat, not every such curve was filed as active; inconclusive = small, poorly fitted or top-dose-only effect, or effect the other way, or a change in a side signal; note: potency is the fitted concentration of half-maximal effect); settings: HEK293 ACTOne CNG channel cells, membrane potential fluorescence; activation (PDE inhibition): at 22.9 µM (top of the series)
How it was run: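 ACTOne HEK293 cells carry a modified cAMP-gated CNG channel and express endogenous PDE4; plated 1000 cells/well, compounds up to 22.9 uM final. Membrane-potential dye fluorescence (ex 535/em 590) was read; parental cells received 10 uM forskolin + 100 uM RO 20-1724.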

[8] = qHTS for differential inhibitors of proliferation of Plasmodium falciparum line GB4 (AID 1816); settings: Potency: Plasmodium falciparum GB4 proliferation inhibition; series mostly up to 28.7 µM;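 note: parasite growth measured after 72 h incubation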
[9] = qHTS for differential inhibitors of proliferation of Plasmodium falciparum line W2 (AID 1883); settings: Potency: Plasmodium falciparum W2 proliferation inhibition; series mostly up to 28.7 µM;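 note: parasites grown with compound for 72 h before lysis and staining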
[10] = molecular target: RecQ-like DNA helicase BLM (Homo sapiens) (UniProt P54132); experiment: qHTS Validation Assay for Inhibitors of Bloom's syndrome helicase (BLM) (AID 2364); settings: BLM helicase DNA unwinding, fluorescence, in vitro; series mostly up to 57.1 µM
How it was run: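 Forked 20-bp duplex substrate (200 nM, TAMRA/BHQ-2) plus 2 mM ATP added after 15 min compound preincubation with 50 nM enzyme, pH 8.0, poly(dI-dC) 2.5 ug/ml. Strand separation followed by fluorescence (525/598 nm) over 2 h, normalized to enzyme-free and DMSO controls.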

[11] = Validation screen for small molecules that induce DNA re-replication in MCF 10A normal breast cells (AID 463097); settings: MCF 10A cells, DNA re-replication phenotype imaging; series mostly up to 46.1 µM; note: nearly all actives have a fitted effect of over 60% in size
How it was run: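 Image-based qHTS: normal breast cells are incubated with compound for 48 hr, stained with Hoechst, and scanned for total nuclear fluorescence. Compounds raising the fraction of nuclei with elevated DNA content count as re-replication inducers.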

[12] = molecular target: ATP-dependent 6-phosphofructokinase (Trypanosoma brucei brucei) (UniProt O15648); experiment: qHTS Validation Assay to Find Inhibitors of T. brucei phosphofructokinase (AID 485368); note: potency is the fitted concentration of half-maximal effect; settings: T. brucei PFK enzyme assay, qHTS 7-point titration; series mostly up to 57.5 µM
How it was run: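 Compounds (up to 57 uM, titration series) were pinned into substrate buffer, then 1.25 nM PFK added; after 45 min at room temperature, ADP product was quantified by ADP-Glo luminescence and concentration-response curves fitted.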

[13] = molecular target: Chromobox protein homolog 1 (Homo sapiens) (UniProt P83916); experiment: qHTS Validation Assay for Inhibitors of HP1-beta Chromodomain Interactions with Methylated Histone Tails (AID 488953); settings: HP1-beta chromodomain / methylated histone peptide binding assay; series mostly up to 114 µM;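 note: loss of AlphaScreen luminescence from HP1-beta binding biotinylated H3K9me3 peptide; nearly all actives have a fitted effect of over 50% in size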
How it was run: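 HP1-beta (50 nM) preformed 30 min with biotinylated H3(1-18)K9me3 peptide (50 nM) in PBS pH 7.4, 0.01% Tween-20. Compounds added for 30 min at room temperature. Complex disruption read by AlphaScreen with streptavidin donor/nickel chelate acceptor beads (10 ug/mL each).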

[14] = qHTS for Inhibitors of ATXN expression: Validation (AID 588378); settings: cell-based ATXN2 expression reporter assay, luminescence; series mostly up to 57.1 µM; note: nearly all actives have a fitted effect of over 75% in size
How it was run: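 Compounds were pinned onto attached HEK293 cells carrying an ATXN2-firefly luciferase construct and incubated 24 hrs at 37 degrees C. Each well then received a fluorescent viability reagent followed by luciferase substrate for end-point luminescence.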

[15] = molecular target: Arylsulfatase A (Homo sapiens) (UniProt P15289); experiment: qHTS screen for enhancers of Arylsulfatase A (ASA1): LOPAC Validation Assay (AID 720538); settings: ASA enzyme activity, LOPAC qHTS enhancer assay; activity change, positive = activation: at 57.5 µM (top of the series); series mostly up to 57.5 µM
How it was run: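 MLD patient fibroblasts (SV40, ASA-I179S), 1536-well; adhere 6 hrs; cpd 48h, 37 degree C, 5% CO2; pNCS 0.5mM final in lysis buffer, 14h RT; stop 1N NaOH final; fluor. Ex525/Em598.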

[16] = molecular target: Cytochrome P450 1A2 (Homo sapiens) (UniProt P05177); experiment: p450-cyp1a2 (AID 410; calls by dose curve; note: potency is the fitted concentration of half-maximal effect); settings: recombinant CYP1A2, luciferin-ME demethylation, luminescence; series mostly up to 57 µM
How it was run: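 20nM CYP1A2 with 100uM Luciferin-ME (at Km) in 100mM KPO4; compound preincubated 10 min, NADPH regeneration added, 60 min at room temperature. Luciferin quantified by luminescence after detection reagent; normalized to 57 uM furafylline.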

[17] = molecular target: Ubiquitin carboxyl-terminal hydrolase 1 (Homo sapiens) (UniProt O94782); experiment: Inhibitors of USP1/UAF1: Pilot qHTS (AID 504865); settings: purified USP1/UAF1, Ub-rhodamine cleavage fluorescence; series mostly up to 54.9 µM;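 note: rhodamine fluorescence freed from ubiquitin-rhodamine substrate followed over time; top concentration of the series differs between compounds; nearly all actives have a fitted effect of over 35% in size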
How it was run: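 In 50mM HEPES pH 7.8 containing 0.5mM EDTA, 1mM TCEP, 0.1 mg/ml BSA and 0.01% Tween-20, 1nM USP1/UAF1 is exposed to compound for 15 min, then Ub-Rho (150nM final) is added and fluorescence is read over time.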

For `Cc1ccc(S(=O)(=O)N2[C@@H](c3ccc(C(C)(C)C)cc3)C(C(=O)O)=CC[C@H]2c2ccc(Cl)cc2)cc1`, the Potency [1] was inconclusive: 84.4 µM [inhibitor, single point].
For `Nc1ccc(N2CCCCC2)c2nonc12`, the Potency [1] was inconclusive: 84.4 µM [inhibitor, single point].
In the case of `CC(C)c1cccc(C(C)C)c1N1C(=O)c2ccc(O)cc2C1=O`, the Potency [2] is reported as “inactive”.
With `Cc1cccc(CNc2ncncc2-c2ccccc2CN(C)C)c1` the activity change, negative = inhibition [3] was inconclusive: -75% [inhibitor], the activity, negative = inhibition [4] was inconclusive: 46.8% [activator] and the Potency [5] was “inactive”.
With `O=c1c(CCc2ccccc2)nc2cncnc2n1C1CC1` the activation [6] was inactive: 6.89%.
With `O=c1c(-c2ccccc2)nc2cncnc2n1-c1ccccc1` the Potency [7] was inconclusive: 7.94 µM [activator, partial curve].
In the case of `CCCCCC(O)CCCC(=O)O` (configuration not stated), the Potency [8] is reported as “inactive”, the Potency [9] is reported as “inactive” and the Potency [10] is reported as “inactive”. The Potency [11] was “inactive”, the Potency [12] was inconclusive: 37.9 µM [falling, single point] and the Potency [13] was “inactive”. The Potency [14] was “inactive” and the Potency [15] was “inactive”.
In the case of `COc1ccc(NC(=O)N2CC3(CCN(S(C)(=O)=O)CC3)C2)cc1`, the Potency [16] is reported as “inactive”.
In the case of `COc1ccccc1CNc1cc(-c2ccccc2Cl)ncn1`, the Potency [7] is reported as inconclusive: 12.6 µM [activator, single point] and the Potency [5] is reported as inconclusive: 14.1 µM [falling, partial curve].
With `COc1ccc(CNc2ncnc3ccc(-c4ccc(C(=O)N(C)C)cc4)cc23)c(OC)c1` the Potency [16] was inconclusive: 39.8 µM [decreasing], the Potency [7] was inconclusive: 15.8 µM [activator, single point] and the Potency [17] was “inactive”.
